Assay results as given in paper PMC7593309, “Structural insights into Arabidopsis ethylene response factor 96 with an extended N-terminal binding to GCC box”.
These are yes or no findings as the source states them, for the method shown.

Protein sequences, listed by entry. Tags and fused reporters are not part of them.
UniProt Q9LSX0: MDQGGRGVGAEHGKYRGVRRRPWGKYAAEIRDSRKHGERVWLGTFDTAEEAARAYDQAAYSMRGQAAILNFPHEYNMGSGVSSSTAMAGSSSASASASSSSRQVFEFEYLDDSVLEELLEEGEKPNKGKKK

Target: Arabidopsis thaliana Ethylene Response Factor 96 (Arabidopsis thaliana) (UniProt Q9LSX0)
Experiment: SEC + other: dynamic light scattering; Superdex 75 in 30 mM HEPES pH 8.0, 500 mM NaCl, 10% glycerol; DLS of the purified protein at 1 mg/mL, 25 °C; both purified

Substance: Arabidopsis thaliana Ethylene Response Factor 96 (from UniProt Q9LSX0 1-131)
- binding: no binding
